Test results published in PubChem BioAssay AID328 (DTP/NCI, 2004).
The list shows only some results of the screen, not a fair sample: it gathers some chemical classes. Not every dose and run of a compound is shown. T/C gives the treated animals as a percentage of the vehicle group. Some entries give survivors of the animals treated and no T/C: the source holds a T/C of zero for them, seemingly a mark for toxic or unscored doses. Some doses without a T/C left all or most animals alive at the check, yet need not have been tolerated: the source hardly ever lists a survival T/C far under the control, and the zero likely stands for such cases as well. Survivors were counted at the toxicity check, usually on the fifth day, unless a day is given; later deaths do not show. Schedules are NCI's codes, read here as Q, the interval in days (D) or hours (H), X, the number of doses. Where survival is the endpoint, this PubChem deposit counts one and a half times the control or more as active, and values a quarter to a half above the control carry no call in these data; other NCI protocols may use other cut-offs. Counts like (3×) give the number of equal values in this list. Some doses were run more than once; the results are listed from low to high. Some T/C values are marked as having no survivor count here; that says nothing about deaths at the dose. Some T/C values are followed by the survivors on the day toxicity was checked, most often the fifth; where neither a count nor a note follows, no animal had died by that day.

System: BDF1 mice, P388 leukemia ip, median survival T/C
Assay: NCI In Vivo Anticancer Drug Screen. Data for tumor model P388 Leukemia (intraperitoneal) in B6D2F1 (BDF1) mice
Conditions: T/C endpoint: median survival time, higher T/C = longer survival
Outline: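 Reported as T/C, where T is the survival measurement in dosed animals and C the same measurement in vehicle controls.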

[1] = dose: 100.0 mg/kg/injection, schedule: Q04DX003 (ip), vehicle: saline
[2] = dose: 200.0 mg/kg/injection, schedule: Q04DX003 (ip), vehicle: saline
[3] = dose: 400.0 mg/kg/injection, schedule: Q04DX003 (ip), vehicle: saline
[4] = dose: 100.0 mg/kg/injection, schedule: Q01DX009 (ip), vehicle: saline with Tween-80

For `NC1CCCCC1.O=P(O)(N(CCCl)CCCl)N1CC1`, the T/C (dose: 1.25 mg/kg/injection, schedule: Q01DX010 (ip), vehicle: saline) was 163 % of control, the T/C (dose: 2.5 mg/kg/injection, schedule: Q01DX010 (ip), vehicle: saline) was 177 and 186 % of control and the T/C (dose: 3.13 mg/kg/injection, schedule: Q01DX009 (ip), vehicle: saline) was 256 % of control. The T/C (dose: 5.0 mg/kg/injection, schedule: Q01DX010 (ip), vehicle: saline) was 195 and 218 % of control, the T/C (dose: 6.25 mg/kg/injection, schedule: Q01DX009 (ip), vehicle: saline) was 256 % of control and the T/C (dose: 10.0 mg/kg/injection, schedule: Q01DX010 (ip), vehicle: saline) was 250 and 259 % of control. The T/C (dose: 12.5 mg/kg/injection, schedule: Q01DX001 (ip), vehicle: saline) was 141 % of control, the T/C (dose: 12.5 mg/kg/injection, schedule: Q01DX009 (ip), vehicle: saline) was 181 % of control and the T/C (dose: 12.5 mg/kg/injection, schedule: Q04DX003 (ip), vehicle: saline) was 232 % of control. For the same compound, the T/C (dose: 12.5 mg/kg/injection, schedule: Q08DX002 (ip), vehicle: saline) was 218 % of control, the T/C (dose: 20.0 mg/kg/injection, schedule: Q01DX010 (ip), vehicle: saline) was 300 % of control and the T/C (dose: 25.0 mg/kg/injection, schedule: Q01DX001 (ip), vehicle: saline) was 179 % of control. For the same compound, the survivor count (dose: 25.0 mg/kg/injection, schedule: Q01DX009 (ip), vehicle: saline) was 6 of 6, the T/C (dose: 25.0 mg/kg/injection, schedule: Q04DX003 (ip), vehicle: saline) was 258 % of control and the T/C (dose: 25.0 mg/kg/injection, schedule: Q08DX002 (ip), vehicle: saline) was 252 % of control. For the same compound, the T/C (dose: 50.0 mg/kg/injection, schedule: Q01DX001 (ip), vehicle: saline) was 262 % of control, the survivor count (dose: 50.0 mg/kg/injection, schedule: Q01DX009 (ip), vehicle: saline) was 6 of 6 and the T/C (dose: 50.0 mg/kg/injection, schedule: Q04DX003 (ip), vehicle: saline) was 88 % of control. The T/C (dose: 50.0 mg/kg/injection, schedule: Q08DX002 (ip), vehicle: saline) was 271 % of control, the survivor count (dose: 100.0 mg/kg/injection, schedule: Q01DX001 (ip), vehicle: saline) was 6 of 6 and the survivor count [1] was 4 of 6. The T/C (dose: 100.0 mg/kg/injection, schedule: Q08DX002 (ip), vehicle: saline) was 119 % of control, the survivor count (dose: 200.0 mg/kg/injection, schedule: Q01DX001 (ip), vehicle: saline) was 5 of 6 and the survivor count [2] was 0 of 6. The survivor count (dose: 200.0 mg/kg/injection, schedule: Q08DX002 (ip), vehicle: saline) was 2 of 6.
For `CCOC(=O)CSc1c(N)c(C)nn1C.O=[N+]([O-])c1cc([N+](=O)[O-])c(O)c([N+](=O)[O-])c1`, the T/C (dose: 3.12 mg/kg/injection, schedule: Q01DX009 (ip), vehicle: water) was 108 % of control [survivor count not shown], the T/C (dose: 6.25 mg/kg/injection, schedule: Q01DX009 (ip), vehicle: water) was 92 % of control [survivor count not shown] and the T/C (dose: 12.5 mg/kg/injection, schedule: Q01DX009 (ip), vehicle: water) was 101 % of control [survivor count not shown]. For the same compound, the T/C (dose: 12.5 mg/kg/injection, schedule: Q04DX003 (ip), vehicle: water) was 93 % of control [survivor count not shown], the T/C (dose: 25.0 mg/kg/injection, schedule: Q01DX009 (ip), vehicle: water) was 97 % of control [survivor count not shown] and the T/C (dose: 25.0 mg/kg/injection, schedule: Q04DX003 (ip), vehicle: water) was 98 % of control [survivor count not shown]. For the same compound, the T/C (dose: 50.0 mg/kg/injection, schedule: Q01DX009 (ip), vehicle: water) was 90 % of control [survivor count not shown], the T/C (dose: 50.0 mg/kg/injection, schedule: Q04DX003 (ip), vehicle: water) was 104 % of control [survivor count not shown] and the T/C (dose: 100.0 mg/kg/injection, schedule: Q01DX009 (ip), vehicle: water) was 92 % of control [survivor count not shown]. The T/C (dose: 100.0 mg/kg/injection, schedule: Q04DX003 (ip), vehicle: water) was 92 % of control [survivor count not shown] and the T/C (dose: 200.0 mg/kg/injection, schedule: Q04DX003 (ip), vehicle: water) was 92 % of control [survivor count not shown].
For `NP(N)(=O)N(CCCl)CCCl`, the T/C [1] was 100 % of control, the T/C [2] was 113 % of control and the T/C [3] was 113 % of control.
In the case of `O=[N+]([O-])c1ccc2c(Cl)n([N+](=O)[O-])nc2c1`, the T/C (dose: 50.0 mg/kg/injection, schedule: Q01DX009 (ip), vehicle: saline with Tween-80) is reported as 86 % of control, the survivor count [4] is reported as 6 of 6 and the survivor count (dose: 200.0 mg/kg/injection, schedule: Q01DX009 (ip), vehicle: saline with Tween-80) is reported as 6 of 6.
For `Cn1/c(=N/Nc2c([N+](=O)[O-])cc([N+](=O)[O-])cc2[N+](=O)[O-])sc2ccccc21`, the T/C [1] was 90 % of control [survivor count not shown], the T/C [2] was 90 % of control [survivor count not shown] and the T/C [3] was 95 % of control [survivor count not shown].
With `Cc1ccc(Sc2ccc([N+](=O)[O-])cc2[N+](=O)[O-])c([N+](=O)[O-])c1` the T/C (dose: 66.0 mg/kg/injection, schedule: Q01DX009 (ip), vehicle: saline with Tween-80) was 104 % of control, the T/C (dose: 100.0 mg/kg/injection, schedule: Q01DX009 (ip), vehicle: saline sonified) was 133 % of control and the T/C [4] was 118 % of control [5 of 6 alive]. The T/C [1] was 90 % of control, the T/C (dose: 150.0 mg/kg/injection, schedule: Q01DX009 (ip), vehicle: saline with Tween-80) was 154 % of control and the T/C (dose: 200.0 mg/kg/injection, schedule: Q01DX009 (ip), vehicle: saline sonified) was 145 % of control. The T/C [2] was 95 % of control, the T/C (dose: 400.0 mg/kg/injection, schedule: Q01DX009 (ip), vehicle: saline sonified) was 125 % of control and the T/C [3] was 100 % of control.
With `CC(=O)OC(SC(OC(C)=O)C(Cl)(Cl)Cl)C(Cl)(Cl)Cl` (centres undefined) the T/C (dose: 100.0 mg/kg/injection, schedule: Q04DX003 (ip), vehicle: gum acacia) was 120 % of control, the T/C (dose: 133.0 mg/kg/injection, schedule: Q04DX003 (ip), vehicle: gum acacia) was 130 % of control [5 of 6 alive] and the T/C (dose: 200.0 mg/kg/injection, schedule: Q04DX003 (ip), vehicle: gum acacia) was 140 % of control (2×). The T/C (dose: 300.0 mg/kg/injection, schedule: Q04DX003 (ip), vehicle: gum acacia) was 150 % of control and the T/C (dose: 400.0 mg/kg/injection, schedule: Q04DX003 (ip), vehicle: gum acacia) was 135 % of control.
